Reference: the supplement of paper PMC12823440, “Inhibitors supercharge kinase turnover through native proteolytic circuits” (Nature, 2025)
Counter-ions that a name gives are not always drawn. The list shows a part of the results. The calls rarely recur for the same compound in another form.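 In K562 cells expressing nanoluciferase-fused kinases, luminescence was recorded at 4 h intervals between 2 and 18 h, normalized as percent of control with DMSO at 100% and a positive control at 0%. A significant (2 sigma) signal drop marks a time point as decreased. The authors' rule for a hit is not shown and takes in more than the number of time points.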

Chains of the proteins cited; added tags and fusions are not shown. Lines headed by an entry give the natural chain unless they say otherwise; changes in a name come on top.
UniProt Q06187: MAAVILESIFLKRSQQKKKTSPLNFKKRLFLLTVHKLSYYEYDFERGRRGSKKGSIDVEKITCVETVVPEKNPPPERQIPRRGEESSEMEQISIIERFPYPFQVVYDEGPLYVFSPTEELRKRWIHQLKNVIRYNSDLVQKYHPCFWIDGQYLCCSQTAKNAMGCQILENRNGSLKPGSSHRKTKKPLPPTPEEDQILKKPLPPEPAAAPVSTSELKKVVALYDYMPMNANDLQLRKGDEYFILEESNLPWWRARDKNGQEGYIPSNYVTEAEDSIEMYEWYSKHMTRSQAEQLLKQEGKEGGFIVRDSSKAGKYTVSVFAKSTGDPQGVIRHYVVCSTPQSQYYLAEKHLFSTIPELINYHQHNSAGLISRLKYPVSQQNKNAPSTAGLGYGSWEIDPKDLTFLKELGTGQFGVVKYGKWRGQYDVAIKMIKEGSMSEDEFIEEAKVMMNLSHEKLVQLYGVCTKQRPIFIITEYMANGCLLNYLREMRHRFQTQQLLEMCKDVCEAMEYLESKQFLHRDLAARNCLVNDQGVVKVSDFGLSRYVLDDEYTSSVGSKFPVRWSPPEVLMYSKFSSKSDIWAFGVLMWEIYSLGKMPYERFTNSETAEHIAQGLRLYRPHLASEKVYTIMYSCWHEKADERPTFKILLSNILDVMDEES
UniProt Q9UQM7, whole entry: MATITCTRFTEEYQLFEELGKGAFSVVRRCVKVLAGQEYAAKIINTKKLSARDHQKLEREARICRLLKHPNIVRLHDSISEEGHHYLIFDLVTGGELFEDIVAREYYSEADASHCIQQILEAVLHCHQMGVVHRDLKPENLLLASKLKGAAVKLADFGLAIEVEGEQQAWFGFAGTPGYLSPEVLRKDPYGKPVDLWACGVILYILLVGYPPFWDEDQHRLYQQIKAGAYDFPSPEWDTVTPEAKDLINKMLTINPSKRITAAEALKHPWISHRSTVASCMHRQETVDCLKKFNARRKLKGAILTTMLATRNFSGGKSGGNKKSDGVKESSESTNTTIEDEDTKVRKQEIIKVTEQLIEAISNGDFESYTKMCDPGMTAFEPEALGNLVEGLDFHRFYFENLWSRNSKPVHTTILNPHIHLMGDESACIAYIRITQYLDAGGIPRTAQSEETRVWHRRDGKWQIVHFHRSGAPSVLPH
UniProt Q13555: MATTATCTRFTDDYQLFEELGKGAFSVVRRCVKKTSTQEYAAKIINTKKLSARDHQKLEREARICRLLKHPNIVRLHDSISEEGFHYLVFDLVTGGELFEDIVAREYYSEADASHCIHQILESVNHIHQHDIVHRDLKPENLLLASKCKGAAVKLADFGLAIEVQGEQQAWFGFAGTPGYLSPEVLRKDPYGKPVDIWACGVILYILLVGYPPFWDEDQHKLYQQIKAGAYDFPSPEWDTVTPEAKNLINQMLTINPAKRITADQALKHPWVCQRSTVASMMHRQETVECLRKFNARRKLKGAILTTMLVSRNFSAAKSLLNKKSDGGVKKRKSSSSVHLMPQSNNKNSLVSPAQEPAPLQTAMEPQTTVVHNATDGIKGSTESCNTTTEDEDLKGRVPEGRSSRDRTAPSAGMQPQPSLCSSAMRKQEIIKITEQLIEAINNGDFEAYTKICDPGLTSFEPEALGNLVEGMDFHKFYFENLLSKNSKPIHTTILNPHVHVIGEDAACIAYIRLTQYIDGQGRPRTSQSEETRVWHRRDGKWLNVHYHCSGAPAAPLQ
UniProt Q15131: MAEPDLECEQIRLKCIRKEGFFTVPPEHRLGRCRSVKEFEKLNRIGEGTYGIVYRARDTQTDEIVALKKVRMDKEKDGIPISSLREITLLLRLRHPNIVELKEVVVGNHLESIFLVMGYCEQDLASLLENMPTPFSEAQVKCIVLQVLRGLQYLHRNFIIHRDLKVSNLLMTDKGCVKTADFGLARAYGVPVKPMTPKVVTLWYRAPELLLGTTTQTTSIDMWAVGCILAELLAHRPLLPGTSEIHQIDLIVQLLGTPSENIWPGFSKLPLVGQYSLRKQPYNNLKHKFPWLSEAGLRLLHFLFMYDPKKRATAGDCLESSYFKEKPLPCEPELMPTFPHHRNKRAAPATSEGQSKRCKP
UniProt Q00526: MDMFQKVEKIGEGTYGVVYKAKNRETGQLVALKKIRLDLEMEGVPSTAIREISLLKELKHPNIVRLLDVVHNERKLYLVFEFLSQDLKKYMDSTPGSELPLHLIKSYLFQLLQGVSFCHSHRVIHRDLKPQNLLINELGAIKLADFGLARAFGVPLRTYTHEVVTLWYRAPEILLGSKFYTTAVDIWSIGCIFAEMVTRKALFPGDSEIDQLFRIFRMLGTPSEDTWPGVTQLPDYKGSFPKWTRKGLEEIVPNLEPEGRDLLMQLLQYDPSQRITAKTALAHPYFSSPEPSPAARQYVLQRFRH
UniProt P11802: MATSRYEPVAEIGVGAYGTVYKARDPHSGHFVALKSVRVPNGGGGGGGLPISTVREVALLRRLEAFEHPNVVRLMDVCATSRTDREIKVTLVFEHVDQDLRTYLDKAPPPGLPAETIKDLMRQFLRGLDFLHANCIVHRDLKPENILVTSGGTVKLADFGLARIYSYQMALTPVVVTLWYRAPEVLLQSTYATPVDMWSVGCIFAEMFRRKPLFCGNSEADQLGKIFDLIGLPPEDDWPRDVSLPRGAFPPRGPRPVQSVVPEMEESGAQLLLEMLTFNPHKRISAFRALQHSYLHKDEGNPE
UniProt Q00535, whole entry, looked up: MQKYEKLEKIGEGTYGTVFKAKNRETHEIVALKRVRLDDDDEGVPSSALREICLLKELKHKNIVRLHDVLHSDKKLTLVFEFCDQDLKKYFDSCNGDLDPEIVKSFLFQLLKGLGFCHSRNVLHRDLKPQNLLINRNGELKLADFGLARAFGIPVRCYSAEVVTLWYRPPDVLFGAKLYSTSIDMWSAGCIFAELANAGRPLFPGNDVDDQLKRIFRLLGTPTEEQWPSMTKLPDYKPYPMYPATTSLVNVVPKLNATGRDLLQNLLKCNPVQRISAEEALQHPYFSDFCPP
UniProt Q00534, whole entry: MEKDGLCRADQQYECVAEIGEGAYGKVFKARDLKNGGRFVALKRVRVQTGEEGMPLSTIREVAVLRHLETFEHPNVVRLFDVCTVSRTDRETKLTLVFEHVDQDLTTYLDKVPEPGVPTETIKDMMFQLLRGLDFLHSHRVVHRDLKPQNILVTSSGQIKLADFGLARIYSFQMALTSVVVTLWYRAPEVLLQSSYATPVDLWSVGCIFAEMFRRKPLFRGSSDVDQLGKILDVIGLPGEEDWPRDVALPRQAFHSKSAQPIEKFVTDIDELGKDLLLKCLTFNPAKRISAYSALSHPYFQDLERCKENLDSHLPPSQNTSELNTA

What was measured:
Test in all cases: kinase-Nluc reporter destabilization hit call (1 = scored as downregulated) (binary); higher = compound decreases kinase abundance
Conditions in all cases: K562; 2-18 h
BRAF_V600E = test system: BRAF_V600E
BTK = BTK (UniProt Q06187)
CAMK2A = CAMK2A (UniProt Q9UQM7)
CAMK2G = CAMK2G (UniProt Q13555)
CDK10 = CDK10 (UniProt Q15131)
CDK2 = CDK2 (UniProt P24941)
CDK3 = CDK3 (UniProt Q00526)
CDK4 = CDK4 (UniProt P11802)
CDK5 = CDK5 (UniProt Q00535)
CDK6 = CDK6 (UniProt Q00534)

Structure (SMILES)	kinase-Nluc reporter destabilization hit call (BRAF_V600E)	kinase-Nluc reporter destabilization hit call (BTK)	kinase-Nluc reporter destabilization hit call (CAMK2A)	kinase-Nluc reporter destabilization hit call (CAMK2G)	kinase-Nluc reporter destabilization hit call (CDK10)	kinase-Nluc reporter destabilization hit call (CDK2)	kinase-Nluc reporter destabilization hit call (CDK3)	kinase-Nluc reporter destabilization hit call (CDK4)	kinase-Nluc reporter destabilization hit call (CDK5)	kinase-Nluc reporter destabilization hit call (CDK6)
C=CC(=O)Nc1cc(Nc2nccc(-c3cn(C)c4ccccc34)n2)c(OC)cc1N(C)CCNC [AZ7550 Mesylate] (2.5 µM)	inactive: 0	inactive: 0	inactive: 0	inactive: 0	inactive: 0	inactive: 0	inactive: 0	inactive: 0	inactive: 0	inactive: 0
Cc1cccc(-c2[nH]ncc2-c2ccnc3ccccc23)n1 (10 µM)	inactive: 0	inactive: 0	inactive: 0	inactive: 0	inactive: 0	inactive: 0	inactive: 0	inactive: 0	inactive: 0	inactive: 0
COCCOc1ccc2c(c1)ncn2-c1ccc2cccc(N3CCC(N)CC3)c2n1 (10 µM)	active: 1	inactive: 0	inactive: 0	inactive: 0	inactive: 0	inactive: 0	inactive: 0	inactive: 0	inactive: 0	inactive: 0
Cc1cc([C@@H](C)Nc2ccccc2C(=O)O)c2nc(N3CCOCC3)cc(=O)n2c1 (10 µM)	inactive: 0	inactive: 0	inactive: 0	inactive: 0	inactive: 0	inactive: 0	inactive: 0	inactive: 0	inactive: 0	inactive: 0
COc1cc2nccc(Oc3ccc(NC(=O)c4cn(C(C)C)c(=O)n(-c5ccc(F)cc5)c4=O)cc3F)c2cc1OC (0.5 µM)	inactive: 0	inactive: 0	inactive: 0	inactive: 0	inactive: 0	inactive: 0	inactive: 0	inactive: 0	inactive: 0	inactive: 0
O=C1OC(/C=C/c2ccccc2)=NC/1=C\c1cccnc1 (10 µM)	inactive: 0	inactive: 0	inactive: 0	inactive: 0	inactive: 0	inactive: 0	inactive: 0	inactive: 0	inactive: 0	inactive: 0
NCC1CCC(CNc2nc(NCc3ccccc3OC(F)(F)F)ncc2[N+](=O)[O-])CC1 (stereo not given) [PKC-theta inhibitor] (10 µM)	inactive: 0	inactive: 0	inactive: 0	inactive: 0	inactive: 0	inactive: 0	inactive: 0	inactive: 0	inactive: 0	inactive: 0
Cc1cnc(NC(=O)c2cc(Oc3cnc(C(=O)N(C)C)nc3)c3cc(C)oc3c2)cn1 (10 µM)	inactive: 0	inactive: 0	inactive: 0	inactive: 0	inactive: 0	inactive: 0	inactive: 0	inactive: 0	inactive: 0	inactive: 0
O=C(NCCO)c1cc(C(=O)NCCO)cc(C(=O)NCCO)c1 (10 µM)	inactive: 0	inactive: 0	inactive: 0	inactive: 0	inactive: 0	inactive: 0	inactive: 0	inactive: 0	inactive: 0	inactive: 0
Cc1c(Cl)cccc1S(=O)(=O)Nc1nc(NCCc2ccccc2)nc2c1CN(Cc1ccccc1)CC2 (2.5 µM)	inactive: 0	inactive: 0	inactive: 0	inactive: 0	inactive: 0	inactive: 0	inactive: 0	inactive: 0	inactive: 0	inactive: 0
CN(C)c1ccc(-c2nc3ncc(Cl)c(N4CCN(CC(=O)Nc5nccs5)CC4)c3[nH]2)cc1 (2 µM)	inactive: 0	inactive: 0	inactive: 0	inactive: 0	inactive: 0	inactive: 0	inactive: 0	inactive: 0	inactive: 0	inactive: 0
CNC(=O)c1ccc2c(c1)ncn2-c1ccc(CC(=O)OC(C)(C)C)cc1 (10 µM)	inactive: 0	inactive: 0	inactive: 0	inactive: 0	inactive: 0	inactive: 0	inactive: 0	inactive: 0	inactive: 0	inactive: 0
COc1cc2c(cc1O)C[C@H]1c3cc(O)c(OC)cc3CC[N@@+]1(C)C2 [Phellodendrine] (10 µM)	inactive: 0	inactive: 0	inactive: 0	inactive: 0	inactive: 0	inactive: 0	inactive: 0	inactive: 0	inactive: 0	inactive: 0
NS(=O)(=O)c1ccc(Nc2nc(-c3cccc(-c4ccccc4)c3)c3[nH]cnc3n2)cc1 (10 µM)	inactive: 0	inactive: 0	inactive: 0	inactive: 0	inactive: 0	inactive: 0	inactive: 0	inactive: 0	inactive: 0	inactive: 0
N[C@@H]1CCCN(c2c(/C=C3\SC(=O)NC3=O)cccc2-c2ccccc2)C1 (10 µM)	inactive: 0	inactive: 0	inactive: 0	inactive: 0	inactive: 0	inactive: 0	inactive: 0	inactive: 0	inactive: 0	inactive: 0
CCn1c(-c2nonc2N)nc2c(C#CC(C)(C)O)ncc(OC[C@H]3CCCNC3)c21 (10 µM)	inactive: 0	inactive: 0	inactive: 0	inactive: 0	inactive: 0	inactive: 0	inactive: 0	inactive: 0	inactive: 0	inactive: 0
C=CC(=O)Nc1cccc(Oc2nc(Nc3ccc(N4CCN(C)CC4)c(F)c3)nc3[nH]ccc23)c1 [Avitinib (maleate)] (2.5 µM)	inactive: 0	inactive: 0	inactive: 0	inactive: 0	inactive: 0	inactive: 0	inactive: 0	inactive: 0	inactive: 0	inactive: 0
CNC(=O)CNc1cnc2ccc(-c3ccc(OC)c(OC)c3)cc2n1 (10 µM)	inactive: 0	inactive: 0	inactive: 0	inactive: 0	inactive: 0	inactive: 0	inactive: 0	inactive: 0	inactive: 0	inactive: 0
CCc1c[nH]c2ncnc(N3CC[C@](N)(CNC(=O)c4ccc(F)cc4F)C3)c12 (10 µM)	inactive: 0	inactive: 0	inactive: 0	inactive: 0	inactive: 0	inactive: 0	inactive: 0	inactive: 0	inactive: 0	inactive: 0
Nc1nccc(-c2c(-c3ccc(F)cc3)ncn2C2CCCCC2)n1 (10 µM)	inactive: 0	inactive: 0	inactive: 0	inactive: 0	inactive: 0	inactive: 0	inactive: 0	inactive: 0	inactive: 0	inactive: 0
CO[C@H]1CC[C@H](N2C(=O)CNc3ncc(-c4ccc(C(C)(C)O)nc4)nc32)CC1 (2.5 µM)	inactive: 0	inactive: 0	inactive: 0	inactive: 0	inactive: 0	inactive: 0	inactive: 0	inactive: 0	inactive: 0	inactive: 0
c1nc2c(NC3CCCCC3)nc(Nc3ccc(N4CCOCC4)cc3)nc2[nH]1 [Reversine] (10 µM)	inactive: 0	inactive: 0	inactive: 0	inactive: 0	inactive: 0	inactive: 0	inactive: 0	inactive: 0	inactive: 0	inactive: 0
CC(C)n1c(=O)n(C)c2cnc3cc(F)c(-c4ccc(OCCCN5CCCCC5)nc4)cc3c21 (10 µM)	inactive: 0	inactive: 0	inactive: 0	inactive: 0	inactive: 0	inactive: 0	inactive: 0	inactive: 0	inactive: 0	inactive: 0
CCN(CC)CCOc1ccc(Nc2nc(-c3ccccc3NC(=O)CCN3CCN(C)CC3)nc3ccccc23)cc1 (2.5 µM)	inactive: 0	inactive: 0	inactive: 0	inactive: 0	inactive: 0	inactive: 0	inactive: 0	inactive: 0	inactive: 0	inactive: 0
N#Cc1cnc2c(Cl)cc(NCc3cn(CCN4CCCCCC4)nn3)cc2c1Nc1ccc(F)c(Cl)c1 [Cot inhibitor-1] (10 µM)	inactive: 0	inactive: 0	inactive: 0	inactive: 0	inactive: 0	inactive: 0	inactive: 0	inactive: 0	inactive: 0	inactive: 0
CC1CN(CC2CCN(Cc3ccccc3)CC2)C(=O)N(c2cccc(C(=N)N)c2)C1 (stereo not given) (10 µM)	inactive: 0	inactive: 0	inactive: 0	inactive: 0	inactive: 0	inactive: 0	inactive: 0	inactive: 0	inactive: 0	inactive: 0
CCCn1/c(=N/C(=O)c2cccc(C(N)=O)c2)[nH]c2ccccc21 [Takinib] (10 µM)	inactive: 0	inactive: 0	inactive: 0	inactive: 0	inactive: 0	inactive: 0	inactive: 0	inactive: 0	inactive: 0	inactive: 0
Cn1c(=O)c2c(nc(S(C)(=O)=O)n2C)n(CC#Cc2cccc(O)c2)c1=O (2.5 µM)	inactive: 0	inactive: 0	inactive: 0	inactive: 0	inactive: 0	inactive: 0	inactive: 0	inactive: 0	inactive: 0	inactive: 0
Cc1nn(C)cc1-c1nc2c(N3CCN(Cc4ccc(Cl)cc4)CC3)c(Cl)cnc2[nH]1 (10 µM)	inactive: 0	inactive: 0	inactive: 0	inactive: 0	inactive: 0	inactive: 0	inactive: 0	inactive: 0	inactive: 0	inactive: 0
N#Cc1ccc2ncnc(NCCc3ccccc3)c2c1 [Senexin A] (10 µM)	inactive: 0	inactive: 0	inactive: 0	inactive: 0	inactive: 0	inactive: 0	inactive: 0	inactive: 0	inactive: 0	inactive: 0

Complete entries, looked up by structure. Order of values: kinase-Nluc reporter destabilization hit call (BRAF_V600E) | kinase-Nluc reporter destabilization hit call (BTK) | kinase-Nluc reporter destabilization hit call (CAMK2A) | kinase-Nluc reporter destabilization hit call (CAMK2G) | kinase-Nluc reporter destabilization hit call (CDK10) | kinase-Nluc reporter destabilization hit call (CDK2) | kinase-Nluc reporter destabilization hit call (CDK3) | kinase-Nluc reporter destabilization hit call (CDK4) | kinase-Nluc reporter destabilization hit call (CDK5) | kinase-Nluc reporter destabilization hit call (CDK6)
O=C(NCCO)c1cc(C(=O)NCCO)cc(C(=O)NCCO)c1 (10 µM) in the list: inactive: 0 | inactive: 0 | inactive: 0 | inactive: 0 | inactive: 0 | inactive: 0 | inactive: 0 | inactive: 0 | inactive: 0 | inactive: 0
COc1cc2c(cc1O)C[C@H]1c3cc(O)c(OC)cc3CC[N@@+]1(C)C2 [Phellodendrine] (10 µM) in the list: inactive: 0 | inactive: 0 | inactive: 0 | inactive: 0 | inactive: 0 | inactive: 0 | inactive: 0 | inactive: 0 | inactive: 0 | inactive: 0
